For 5 molecules, binding results are on record in paper doi:10.1101/2025.11.18.689162 (bioRxiv, 2025).

Protein sequences, listed by entry. Tags and fused reporters are not part of them. Lines headed by an entry give the natural chain unless they say otherwise; changes in a name come on top. Chains listed by the source or under a name are the forms on record and can include a tag or linker.
PDE4D9-mCherry expressed in HEK293T cells (Q08499-10, form named): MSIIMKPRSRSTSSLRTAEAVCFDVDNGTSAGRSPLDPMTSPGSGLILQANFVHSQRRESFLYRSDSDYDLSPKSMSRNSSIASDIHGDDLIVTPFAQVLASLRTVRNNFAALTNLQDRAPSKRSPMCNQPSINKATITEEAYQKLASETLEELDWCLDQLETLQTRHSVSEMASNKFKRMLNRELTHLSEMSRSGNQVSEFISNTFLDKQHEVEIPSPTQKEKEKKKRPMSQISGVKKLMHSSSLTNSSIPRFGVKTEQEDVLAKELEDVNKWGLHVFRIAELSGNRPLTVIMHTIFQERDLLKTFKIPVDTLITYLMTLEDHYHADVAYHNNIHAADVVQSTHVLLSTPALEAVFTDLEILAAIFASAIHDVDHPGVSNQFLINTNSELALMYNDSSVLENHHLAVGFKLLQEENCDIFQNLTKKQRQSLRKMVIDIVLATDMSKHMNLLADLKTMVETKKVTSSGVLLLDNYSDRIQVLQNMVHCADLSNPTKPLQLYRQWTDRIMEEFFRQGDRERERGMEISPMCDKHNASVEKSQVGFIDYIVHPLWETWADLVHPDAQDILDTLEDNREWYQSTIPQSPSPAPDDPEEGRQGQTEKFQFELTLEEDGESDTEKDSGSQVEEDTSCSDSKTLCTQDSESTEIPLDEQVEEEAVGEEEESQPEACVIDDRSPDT
UniProt P48787: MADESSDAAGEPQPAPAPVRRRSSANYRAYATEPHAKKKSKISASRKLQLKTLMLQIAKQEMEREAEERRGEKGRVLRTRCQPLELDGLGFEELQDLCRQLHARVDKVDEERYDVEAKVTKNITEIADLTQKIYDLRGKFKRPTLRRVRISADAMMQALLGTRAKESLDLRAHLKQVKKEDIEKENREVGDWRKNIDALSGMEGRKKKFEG
UniProt P23693: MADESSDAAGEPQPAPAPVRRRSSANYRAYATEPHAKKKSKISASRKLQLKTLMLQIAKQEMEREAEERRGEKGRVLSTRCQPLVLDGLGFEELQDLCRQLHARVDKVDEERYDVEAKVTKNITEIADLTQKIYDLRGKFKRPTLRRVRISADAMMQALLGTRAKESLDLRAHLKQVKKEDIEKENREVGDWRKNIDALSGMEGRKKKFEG
PDE4D9, rat, endogenous (P14270-6, form named): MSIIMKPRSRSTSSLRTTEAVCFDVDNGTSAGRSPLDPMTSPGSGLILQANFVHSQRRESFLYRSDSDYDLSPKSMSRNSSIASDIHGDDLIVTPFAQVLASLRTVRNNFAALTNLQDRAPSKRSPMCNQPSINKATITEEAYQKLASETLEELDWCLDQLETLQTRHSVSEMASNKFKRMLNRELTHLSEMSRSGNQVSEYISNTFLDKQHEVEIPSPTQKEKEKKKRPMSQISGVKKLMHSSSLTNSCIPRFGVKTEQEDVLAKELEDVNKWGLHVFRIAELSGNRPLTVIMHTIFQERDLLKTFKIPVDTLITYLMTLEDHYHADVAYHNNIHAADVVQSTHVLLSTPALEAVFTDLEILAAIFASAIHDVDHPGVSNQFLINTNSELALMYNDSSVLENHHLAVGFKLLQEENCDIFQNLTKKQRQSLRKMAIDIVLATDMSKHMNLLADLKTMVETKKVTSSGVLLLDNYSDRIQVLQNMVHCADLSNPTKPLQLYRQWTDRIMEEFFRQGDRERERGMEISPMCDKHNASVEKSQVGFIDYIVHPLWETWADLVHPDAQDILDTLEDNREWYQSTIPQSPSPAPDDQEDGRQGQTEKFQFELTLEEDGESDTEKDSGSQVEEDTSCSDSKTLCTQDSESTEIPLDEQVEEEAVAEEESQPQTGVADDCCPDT

Holding throughout (assay): co-IP
In test [1] the target is TPNI-CUTie expressed in HEK293T cells (UniProt P19429).
The target of test [2] is cardiac troponin I (TPNI), human, endogenous (human (endogenous in hiPSC-CM and ventricular tissue)) (UniProt P19429).
For test [3] the target is unchanged. This is another data set of the same source.
Test [4] addresses PDE4D9-mCherry expressed in HEK293T cells (UniProt Q08499).
Test [5] has as its target cardiac troponin I (TPNI), mouse, endogenous (mouse (endogenous in heart)) (UniProt P48787).
Test [6] shares this target. This is another data set of the same source.
For test [7] the target is unchanged. This is another data set of the same source.
Test [8] deals with cardiac troponin I (TPNI), rat, endogenous (rat (endogenous in ARVM and NRVM)) (UniProt P23693).

Residue numbers refer to the chain shown, from its start. Where two headings read alike, the source gives them in different places. These are yes or no findings as the source states them, for the method shown. Binding seen in cells or lysates may run through a third protein. Some entries that bind do so weakly or less than the wild type.

As for “PDE4D9-mCherry expressed in HEK293T cells (from UniProt Q08499-10 1-679) (enzyme)”, the binding result in test [1] is “binds”.
For the molecule “PDE4D9, human, endogenous (from UniProt Q08499-10 1-679) (enzyme)”, the binding entry in test [2] and in test [3] was “binds” throughout.
With “TPNI expressed in HEK293T cells (from UniProt P19429 1-210)”, the binding entry in test [4] is listed as “binds”.

B1: PDE4D9, mouse, endogenous (enzyme, mouse (endogenous in heart), UniProt Q01063-2 1-678, looked up)
chain: MSIIMKPRSRSTSSLRTTEAVCFDVDNGTSAGRSPLDPMTSPGSGLILQANFVHSQRRESFLYRSDSDYDLSPKSMSRNSSIASDIHGDDLIVTPFAQVLASLRTVRNNFAALTNLQDRAPSKRSPMCNQPSINKATITEEAYQKLASETLEELDWCLDQLETLQTRHSVSEMASNKFKRMLNRELTHLSEMSRSGNQVSEYISNTFLDKQHEVEIPSPTQKEKEKKKRPMSQISGVKKLMHSSSLTNSCIPRFGVKTEQEDVLAKELEDVNKWGLHVFRIAELSGNRPLTVIMHTIFQERDLLKTFKIPVDTLITYLMTLEDHYHADVAYHNNIHAADVVQSTHVLLSTPALEAVFTDLEILAAIFASAIHDVDHPGVSNQFLINTNSELALMYNDSSVLENHHLAVGFKLLQEENCDIFQNLTKKQRQSLRKMVIDIVLATDMSKHMNLLADLKTMVETKKVTSSGVLLLDNYSDRIQVLQNMVHCADLSNPTKPLQLYRQWTDRIMEEFFRQGDRERERGMEISPMCDKHNASVEKSQVGFIDYIVHPLWETWADLVHPDAQDILDTLEDNREWYQSTIPQSPSPAPDDQEEGRQGQTEKFQFELTLEEDCESDTEKDSGSQVEEDTSCSDSKTLCTQDSESTEIPLDEQVEEEAVAEEESQPETCVPDDCCPDT
Turning to B1, the binding entry in test [5], in test [6] and in test [7] was “binds” each time.

B2: PDE4D9, rat, endogenous (enzyme, UniProt P14270-6 1-678)
chain: B1 chain with V436A, E595D, C614G, E667Q, C669G, P671A
In the case of B2, in test [8], the binding result is given as “binds”.
